The exact form of at least one protein or probe is not confirmed. Where a protein sequence is shown, tags need not be part of it.
Biological target: T1, Fis (Escherichia coli) (UniProt P0A6R3)
T1 sequence (looked up, limits assumed): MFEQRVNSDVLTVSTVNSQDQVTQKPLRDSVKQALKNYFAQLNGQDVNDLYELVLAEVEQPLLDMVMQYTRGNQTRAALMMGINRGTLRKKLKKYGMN
Assay: EMSA
Details: Gel shift under standard conditions of ref 64, pH and temperature not given, recombinant protein, protein details: His-tag (pET21a), label: 5'-FITC on one primer, probe letters rebuilt from the primers and the genome

[1] = number of Fis sites as reported previously

| Sequence | binding result [1] | other results |
| --- | --- | --- |
| GAAGATCTGAAAGGTTTTTCTGTGCAGCTAACTGTTGTGCGCTTAAAGGCATTACTTATCTTCCTTTTTCTTTTTATTCCTCCTTAGTATGCCACCAGGAAGTGTGATTACGGTTGCAAAAACGGCAAATTGCTTGTTTTATGGCACATTAACGGGGCTTTTGCTGAAAAAATGCGCGGTCAGAAAATTATTTTAAATTTCCTCTTGTCAGGCCGGAATAACTCCCTATAATGCGCCACCACTGACACGGAACAACGGCAAACACGCCGCCGGGTCAGCGGGGTTCTCCTGAGAACTCCGGCAGAGAAAGCAAAAATAAATGCTTGACTCTGTAGCGGGAAAGCGTATTATGCACACCCCGCGCCGCTGAGAAAAAGCAAAGCGGCACTGCTCTTTAACAATTTATCAGACAATCTGTGTGGGCACTCGAAGATACGGATTCTTAACGTCGCAAGACGAAAAATGAATACCAAGTCTCAAGAGTGAACACGTAATTCATTACGAAGTTTAATTCTTTGAGCATCAAACTTTTGAATTCC (double strand) [rrnC promoter probe] | binds |  |
| GAAGATCTGATTCTGGCGCAGCGATTGCTCGCCGAACGGCCTGGTTGTTAGAACATGAAGCCCCGGATGCAAAATCTGCCGATGCGAATATTGCCTTTTGTATGGCAATGACGCCAGGAGCTGAACAATTATTGCCCGTTTTACAGCGTTACGGCTTCGAAACGCTCGAAAAACTGGCAGTTTTAGGCTGATTTGGTTGAATGTTGCGCGGTCAGAAAATTATTTTAAATTTCCTCTTGTCAGGCCGGAATAACTCCCTATAATGCGCCACCACTGACACGGAACAACGGCAAACACGCCGCCGGGTCAGCGGGGTTCTCCTGAGAACTCCGGCAGAGAAAGCAAAAATAAATGCTTGACTCTGTAGCGGGAAGGCGTATTATGCACACCCCGCGCCGCTGAGAAAAAGCGAAGCGGCACTGCTCTTTAACAATTTATCAGACAATCTGTGTGGGCACTCGAAGATACGGATTCTTAACGTCGCAAGACGAAAAATGAATACCAAGTCTCAAGAGTGAACACGTAATTCATTACGAAGTTTAATTCTTTGAGCGTCAACATTTTGAATTCC (double strand) [rrnB promoter probe] | binds |  |
| GGAATTCAAAAGTTTGATGCTCAAAGAATTAAACTTCGTAATGAATTACGTGTTCACTCTTGAGACTTGGTATTCATTTTTCGTCTTGCGACGTTAAGAATCCGTATCTTCGAGTGCCCACACAGATTGTCTGATAAATTGTTAAAGAGCAGTGCCGCTTCGCTTTTTCTCAGCGGCGCGGGGTGTGCATAATACGCCTTCCCGCTACAGAGTCAAGCATTTCTTTGCTTTTCTCTGTTGAGATTCTCAGGAGAACCCCGCCGACCCGGCGGCGTGTTTGCCGTTGTTCCGTGTCAGTGGTGGCGCATTATAGGGAGTTATTCCGGCCTGACAAGCGAAAAATATAAAAACTTTATCGTTCGCTCACTTTTCAGGCAAAACATCTTAAATATAGTCTTTTCCGTCTAACTTATAGACAAAAACGAGCCCCGAAGGGCTCGTTTTATCATTTACTGGACGGCGACAATCCGGTCTTCATTAACTTCCAGGCGAATCACTTTACCCGGAACCAATTCACCAGACAGTATTTGCTGTGCCAGCGGGTTTTCGATCTGCTGCAGATCTTC (double strand) [rrnG promoter probe] |  | binding result (more than 6 apparent sites, cooperative): binds |
| GGAATTCAAAAGTTTGATGCTCAAAGAATTAAACTTCGTAATGAATTACGTGTTCACTCTTGAGACTTGGTATTCATTTTTCGTCTTGCGACGTTAAGAATCCGTATCTTCGAGTGCCCACACAGATTGTCTGATAAATTGTTAAAGAGCAGTTGCGACGCGCTTTAGCGCACTGTCGCGAGGTGGCGTATATTACGCTTTCCTCTTTCAGAGTCAACCCTGAATTTCAGGATTTTTCTCTTCAACCGAACCGGCTGTTTGTGTGAAGTGATTCACATCCGCCGTGTCGATGGAGGCGCATTATAGGGAGTTCTCCGCAGGCCGCAATAGAAAAATTGCAGAAAAATGACTGACTGCTGCATTCCCCAGCAAAAGCCCGCTTTATACCTTTTTACGCACAGAGTTATCCACAATCATCAATGTAATTTCTGTATTTTGCCCACGGTAACCACAGTCAAAATTGTGATCACCATTGAAAGAGAAAAATTCGCGAGCGTTGCGCAAACGTTTTCGTTACAATGCGGGCGAAAAATAAGGATGCCCCGTTAGGGGCGTTAGCTGAGAGATCTTC (double strand) [rrnE promoter probe] |  | binding result (more than 8 apparent sites, cooperative): binds |
| GGAATTCAAAAGTTTGATGCTCAAAGAATTAAACTTCGTAATGAATTACGTGTTCACTCTTGAGACTTGGTATTCATTTTTCGTCTTGCGACGTTAAGAATCCGTATCTTCGAGTGCCCACACAGATTGTCTGATAAATTGTTAAAGAGCAGTTGCGACGCGGCTTTCAGCTCACTGTCGCGAGGTGGCGTATATTACGCTTTCCTCTTTCAGAGTCAACCCTGAATTTCAGGATTTTTTTCTCTTCGTTGTTCCGACCATCCTGTGAAGTGTTTCACGTTGTCGTCTCAACGGAGGCGCATTATAGGGATCCCAATTTTTTGCACAAGTATTTTTTTGATCTTTTTTTCTGTTTGTTGTTTTTTCACCCTTTTTGCTGCAATCGCACACAAAACGGTGCTTTTTTGCATACTAAAAGACTTGCACAAGGCCAATAATGCCCCCAAAGTCATTAGTAAATCATTTATTGCTGAGGTAAGTATGTCTGATGTTTTACGCCCATACCGCGATCTTTTTCCACAAATCGGTCAGCGCGTAATGATCGAGATCTTC (double strand) [rrnD promoter probe] | binds |  |
| GGAATTCAAAAGTTTGATGCTCAAAGAATTAAACTTTGTAATGAATTACGTGTTCACTCTTGAGACTTGGTATTCATTTTTCGTCTTGCGACGTTAAGAATCCGTATCTTCGAGTGCCCACACAGATTGTCTGATAAATTGTTAAAGAGCAGTTGCGACGCGGCTTTCAGCTCACTGTCGCGAGGTGGCGTATATTACGCTTTCCTCTTTCAGAGTCAACCCTGAATTTCAGGATTTTTCTCTTCAACCGAACCGGCTGTTTGTGTGAAGTGATTCACATCCGCCGTGTCGATGGAGGCGCATTATAGGGAGTCGGCTCAGGAAGACAAGCGGAAAAATGCATTTTTATTTCAACCGCTCATCTTTTAATCATTGTGCCGGTTTTTGCTGCTTTTTTATCGCTTGCGGCAGGTCTGCCAGGCTATTTAACACCCAATCCGCCGCGTTTTCTGCTTCAGGCGTAATAGGTTTACCCGTACGCACCAGCACTTTTGTTCCCACGTTCGCCGCAACCGCTGCCTGCAGATCAGATCTTC (double strand) [rrnH promoter probe] | binds |  |
| GGAATTCAAAATGTTGACGCTCAAAGAATTAAACTTCGTAATGAATTACGTGTTCACTCTTGAGACTTGGTATTCATTTTTCGTCTTGCGACGTTAAGAATCCGTATCTTCGAGTGCCCACACAGATTGTCTGATAAATTGTTAAAGAGCAGTGCCGCTTCGCTTTTTCTCAGCGGCGCGGGGTGTGCATAATACGCCTTCCCGCTACAGAGTCAAGCATTTATTTTTGCTTTCTCTGCCGGAGTTCTCAGGAGAACCCCGCTGACCCGGCGGCGTGTTTGCCGTTGTTCCGTGTCAGTGGTGGCGCATTATAGGGAGTTATTCCGGCCTGACAAGAGGAAATTTAAAATAATTTTCTGACCGCGCATTTTTTATTCTTTATGCTTATTTCAGCGTCGGTTTGTCGGTTAAATGGGCGATTTCTCGGGCGAAATTCGCCACCTGCTCCCAATCGGTATAGACAACTTCTTTGCGCGTATCCGTTTCACCGCCTGACATCTTCATAATCAGCTTGATCATAAAACGGTCGTACCAGCGATAACGAGATCTTC (double strand) [rrnA promoter probe] | binds |  |
